PubChem BioAssay AID1053208 | Peter MacCallum Cancer Centre, 2014
Test: 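Find knock-downs that sensitise mouse osteosarcoma cells to doxorubicin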 (primary screen). Cell system: mouse osteosarcoma cells, early-passage culture from an engineered mouse model of fibroblastic bone tumour. Knock-down reagent: siRNA pool against mouse genes, 40 nM. Duration: about 120 h (48 h before drug, then 72 h with drug). Treatment: doxorubicin 100 nM for 72 h, roughly 30-40% inhibitory dose. Read-out: 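Viability read as ATP luminescence after 72 h of 100 nM doxorubicin or none, duplicate wells averaged, scaled to non-targeting siRNA, then expressed as robust z-scores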. Direction: viability z-score with doxorubicin and doxorubicin viability vs non-targeting: higher = more viable cells under doxorubicin; viability z-score without drug: higher = more viable cells with knock-down alone; z-score of drug to no-drug ratio: higher = less drug sensitisation by knock-down. Rule for the call: 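a pool counts as active when its viability z-score with doxorubicin is -2 or below and its z-score without drug lies between -2 and 2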.
In all, the deposit lists about 17,000 reagents; below is a part drawn at random. Of all reagents, 788 (4.7%) are marked active. 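Calls rest on z-score classes alone; an extra cut-off of viability at most 70% of control was not applied to them.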 Reagents against one gene are numbered here. Reagent sequences are not shown.

| gene knocked down | reagent no. | combined z-score class | viability z-score with doxorubicin | viability z-score without drug | z-score of drug to no-drug ratio | doxorubicin viability vs non-targeting | Outcome |
| --- | --- | --- | --- | --- | --- | --- | --- |
| Vps45 (vacuolar protein sorting 45) | 1 | no change with or without drug | 0.9 | 0.34 | 0.79 | 1.02 | inactive |
| Or3a1d (olfactory receptor family 3 subfamily A member 1D) | 1 | no change with or without drug | -1.01 | -0.17 | -0.9 | 0.85 | inactive |
| Mllt6 | 1 | no change with or without drug | -1.35 | 1.52 | -2.14 | 0.82 | inactive |
| Cbx5 (chromobox 5) | 1 | no change with or without drug | -0.79 | 0 | -0.67 | 0.87 | inactive |
| Tafa5 (TAFA chemokine like family member 5) | 1 | no change with or without drug | -0.45 | -0.17 | -0.22 | 0.9 | inactive |
| Klrb1b (killer cell lectin-like receptor subfamily B member 1B) | 1 | no change with or without drug | -0.67 | -1.01 | 0.11 | 0.88 | inactive |
| Klrb1b (killer cell lectin-like receptor subfamily B member 1B) | 2 | no change with or without drug | -0.22 | 0.67 | -0.56 | 0.92 | inactive |
| Or12e7 (olfactory receptor family 12 subfamily E member 7) | 1 | no change with or without drug | 0.22 | -1.18 | 1.24 | 0.96 | inactive |
| Sncg (synuclein, gamma) | 1 | no change with or without drug | -0.22 | -0.51 | 0.22 | 0.92 | inactive |
| Gabrg2 (gamma-aminobutyric acid type A receptor, subunit gamma 2) | 1 | no change with or without drug | 0.67 | 0.17 | 0.67 | 1 | inactive |
| Disp1 (dispatched RND transporter family member 1) | 1 | no change with or without drug | -0.34 | 0.17 | -0.34 | 0.91 | inactive |
| Sult5a1 (sulfotransferase family 5A, member 1) | 1 | no change with or without drug | -0.67 | 0.17 | -0.67 | 0.88 | inactive |
| Mrps17 (mitochondrial ribosomal protein S17) | 1 | low cell count without drug only | -0.67 | -2.53 | 1.35 | 0.88 | inactive |
| Trib2 (tribbles pseudokinase 2) | 1 | no change with or without drug | 0.22 | 0.51 | 0 | 0.96 | inactive |
| C1ql3 (C1q-like 3) | 1 | no change with or without drug | 0.22 | 0.17 | 0.22 | 0.96 | inactive |
| Apobec2 | 1 | no change with or without drug | 1.57 | -0.17 | 1.91 | 1.08 | inactive |
| Phf11d (PHD finger protein 11D) | 1 | no change with or without drug | 1.12 | -1.18 | 2.25 | 1.04 | inactive |
| Zbtb21 (zinc finger and BTB domain containing 21) | 1 | low cell count with doxorubicin only | -2.25 | -0.51 | -2.02 | 0.74 | active |
| Slc9a9 | 1 | no change with or without drug | 0.9 | 0 | 1.01 | 1.02 | inactive |
| Cryl1 (crystallin, lambda 1) | 1 | no change with or without drug | -0.67 | 1.18 | -1.35 | 0.88 | inactive |
